# Paper PMC6925144, “A prospective compound screening contest identified broader inhibitors for Sirtuin 1” (Scientific Reports, 2019)
# The chains behind the UniProt entries cited, without tags or fusion partners. Residues count along the entry.
# UniProt Q96EB6, 2-747 limits assumed: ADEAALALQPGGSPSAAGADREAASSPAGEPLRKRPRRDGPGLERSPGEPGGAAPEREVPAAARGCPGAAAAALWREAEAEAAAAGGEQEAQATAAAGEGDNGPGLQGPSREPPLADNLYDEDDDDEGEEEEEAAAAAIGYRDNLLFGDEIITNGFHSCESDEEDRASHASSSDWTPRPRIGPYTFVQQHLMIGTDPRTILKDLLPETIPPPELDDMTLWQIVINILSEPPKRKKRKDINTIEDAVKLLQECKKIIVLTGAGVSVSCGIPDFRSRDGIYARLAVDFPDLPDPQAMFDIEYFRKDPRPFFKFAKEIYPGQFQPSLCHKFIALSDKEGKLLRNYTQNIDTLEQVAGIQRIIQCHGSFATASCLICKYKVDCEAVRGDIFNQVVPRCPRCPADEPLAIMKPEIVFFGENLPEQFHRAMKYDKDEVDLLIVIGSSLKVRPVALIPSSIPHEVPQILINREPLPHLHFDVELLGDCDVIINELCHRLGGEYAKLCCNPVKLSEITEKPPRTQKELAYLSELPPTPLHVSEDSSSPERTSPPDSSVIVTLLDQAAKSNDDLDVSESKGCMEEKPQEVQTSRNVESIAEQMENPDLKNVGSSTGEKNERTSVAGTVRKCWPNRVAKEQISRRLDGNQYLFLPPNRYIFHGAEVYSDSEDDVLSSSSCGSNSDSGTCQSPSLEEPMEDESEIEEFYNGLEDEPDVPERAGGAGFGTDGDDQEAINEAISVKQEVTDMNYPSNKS
# The full ranking holds about 3,200 compounds; the median of “TSA(without NAD+) / Primary screening (TSA) / delta Tm (K)” is about -0.07, and the highest 2% start at about 0.37. The list shows a part of the results.
# Molecular target: NAD-dependent deacetylase Sirtuin 1 (human, UniProt Q96EB6)
# Assay: primary screen, delta tm
# Parameters: single well (n = 1)
# Conditions: 10 µM
# How it was run: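 Thermal shift of Sirtuin 1 measured without NAD+, compound at 10 µM (n = 1); value is ΔTm, with hits defined as ΔTm > 0.45 K or < −1.5 K. Hits retested at 5, 10, 20 µM (n = 4) and counterscreened on bovine carbonic anhydrase and ABL1 SH2 domain.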
row,SMILES,TSA(without NAD+) / Primary screening (TSA) / delta Tm (K)
1,CCOC(=O)c1cnc2ccccc2c1NC1CCN(C(=O)OCC)CC1,-0.12 K
2,CCCN(Cc1ccc(C(N)=O)cc1)Cc1nnc(-c2ccco2)o1,-0.07 K
3,Cn1c(=O)[nH]c(=O)c2c1nc(N1CCC(C(N)=O)CC1)n2CCSc1nc2ccccc2o1,0.02 K
4,CCOc1ccc(C2C(C(=O)c3ccc(C)cc3)=C(O)C(=O)N2CCCN2CCOCC2)cc1 (stereo not shown),-0.05 K
5,NC(=O)c1cccc(CN2CCCC2c2ccsc2)c1 (stereo not shown),-0.08 K
6,COc1ccc(CCN2CC(C(=O)OCC(=O)NC(Cc3ccccc3)C(C)=O)CC2=O)cc1OC (stereo not shown),-0.33 K
7,COCC(CN)OC (stereo not shown),-0.13 K
8,CC(Oc1ccc2ccc(=O)oc2c1)C(=O)N1CCc2ccccc21 (stereo not shown),-0.24 K
9,NC(=O)C1CCN(C(=O)c2[nH]c3ccc(F)cc3c2Cl)CC1,-0.12 K
10,COc1ncnc2c1cnn2-c1ccccc1,-0.13 K
11,NC(=O)c1cnc(Nc2ncnc3oc(-c4ccccc4)cc23)s1,-0.18 K
12,CNC(=O)CNC(=O)CNC(=O)c1cccs1,-0.07 K
13,CCn1cc(C(=O)N(C)Cc2ccc(OCc3ccccc3)c(OC)c2)c(=O)c2ccc(C)nc21,-0.02 K
14,NC(=O)c1c(NC(=O)CSc2nnc(N3CCCC3)n2C2CC2)sc2c1CCC2,-0.17 K
15,O=C(CSc1nncn1-c1ccccc1)Nc1ccccc1[N+](=O)[O-],-0.13 K
16,COc1cc2c(N3CCC(c4cc(N)[nH]n4)CC3)ncnc2cc1F,0.06 K
17,C=CCOc1ccc(C2C(C(=O)c3ccc(OCC)cc3)=C(O)C(=O)N2CCN2CCOCC2)cc1 (stereo not shown),-0.12 K
18,COc1cc(C2C(C(=O)c3ccco3)=C(O)C(=O)N2CCCN2CCOCC2)cc(OC)c1OC (stereo not shown),-0.12 K
19,O=C(NCCC12CC3CC(C1)CC(CCNC(=O)c1ccc(S(=O)(=O)N4CCOCC4)cc1)(C3)C2)c1ccc(S(=O)(=O)N2CCOCC2)cc1,0.17 K
20,Cc1ccc(-c2sc(-c3ccccc3)nc2CC(=O)Nc2nnc(CC(C)C)s2)cc1,-0.15 K
21,CCOc1ccc(C(NC(=O)c2cc(C(N)=O)cn2C)C(C)C)cc1OCC (stereo not shown),-0.08 K
22,NCC1CCCC1N (stereo not shown),0.02 K
23,CN(C)Cc1ccc(C(=O)Nc2cccc(C(=O)NC3CC3)c2)cc1,-0.03 K

# Two entries picked at random from the list so far, as already listed:
row,SMILES,TSA(without NAD+) / Primary screening (TSA) / delta Tm (K)
20,Cc1ccc(-c2sc(-c3ccccc3)nc2CC(=O)Nc2nnc(CC(C)C)s2)cc1,-0.15 K
23,CN(C)Cc1ccc(C(=O)Nc2cccc(C(=O)NC3CC3)c2)cc1,-0.03 K

# Following part.

row,SMILES,TSA(without NAD+) / Primary screening (TSA) / delta Tm (K)
1,Cc1sc2ncnc(N3CCCC(C(N)=O)C3)c2c1C (stereo not shown),-0.13 K
2,Cn1c(SCC(N)=O)nc2ccccc21,-0.23 K
3,Cc1c(C(C)C)c(Cl)n2c(nc3ccccc32)c1C#N,-0.02 K
4,CCOc1cc2c(cc1CNC(=O)NCc1cn(Cc3ccccc3)nc1-c1ccccc1)OC(C)C2 (stereo not shown),-0.07 K
5,O=C(CN1CCN(C(=O)c2ccc(-c3nc4ccccc4s3)o2)CC1)Nc1cccc(F)c1,0.07 K
6,O=C1NC(=S)N/C1=C/c1ccc(-c2ccc(Cl)cc2)o1,-0.04 K
7,O=C1NC(=S)NC(=O)C1=CNc1ccc(Br)cc1,0.03 K
8,COc1ccccc1CNC(=O)CN(C)Cc1ccc(SC)cc1,-0.22 K
9,NC(=O)c1ccc(COc2ccc3oc4ccccc4c3c2)cc1,0.02 K
10,O=C1NC(=S)NC(=O)C1=Cc1ccc(-c2ccccc2)o1,-0.33 K
11,O=C(O)c1ccc2[nH]c(C(F)F)nc2c1,0.15 K
12,CCC(C)N(C)CCN (stereo not shown),-0.04 K
13,O=C(CSc1nnc(CC2CCS(=O)(=O)C2)o1)NC1CCCc2ccccc21 (stereo not shown),-0.02 K
14,NC(=O)c1csc(C(=O)NCCc2cc(F)cc3c2OCOC3)c1,-0.04 K
15,CCc1cccc2c(C(=O)N3CCN(C4CCCC4O)CC3)c[nH]c12 (stereo not shown),-0.02 K
16,O=C(COC(=O)C12CC3CC(C1)CC(c1ccccc1)(C3)C2)N1CCN(c2ccccc2)CC1,-0.14 K
17,c1ccc2[nH]c(-c3nc4c5ccccc5ncn4n3)cc2c1,0.07 K
18,CN1CCC(NC(=O)c2cnc(N)c(Cl)c2)C1c1ccc(F)cc1 (stereo not shown),-0.03 K
19,COc1ccc(NC(=O)CCN2C(=O)c3ccc(C)cc3C2=O)cc1OCc1cn2ccccc2n1,-0.15 K
20,Cc1nc(CSc2nccn2Cc2ccccn2)cs1,-0.05 K
21,COCCN(C)CCN,-0.14 K
22,Cc1ccc(C)c(C(=O)CCC(=O)OC(C)C(=O)Nc2ccc(C(N)=O)cc2)c1 (stereo not shown),-0.05 K
23,O=C1CC2(CCCCC2)CC(=O)C1=CN/N=C1/C(=O)Nc2ccccc21,-0.07 K
